{"source": "patent US7056929B2", "about": "“Benzo[b]pyrano[3,2-h]acridin-7-one compounds” (Les Laboratoires Servier, priority 2001, dated 2006)", "tested_on": "C38 adenocarcinoma of the colon", "experiment": "Anti-tumour activity with respect to C38 adenocarcinoma of the colon in mice", "type": "in vivo", "settings": "C38, stated jointly for compounds 7 and 8 (100 minus T/C of Table 3)", "experimental": "Tumour fragments of C38 adenocarcinoma of the colon weighing approximately 30 mg were implanted under the skin of B6D2F1 mice (Iffa Credo, France) on day 0.\nAfter growth of the tumour, the mice were divided into control (18 animals) and treated (6 or 7 animals) groups, which were homogeneous with respect to tumour size. The products were administered by the i.v. route once per week for 3 weeks (on days 10, 17 and 24), at their Maximum Tolerated Dose (MTD), MTD/2 and MTD/4. The tumours were measured twice a week and the tumour volumes were calculated according to the following formula: volume (mm^3)=length (mm)×breadth (mm^2)/2. The anti-tumour activity is expressed as % T/C:\n[formula] V0 and Vt being the initial volume of the tumour and its volume at measurement time t, respectively.\nThe optimum dose is the dose giving the lowest T/C value without toxicity (early death or weight loss greater than 20%).\nThe procedure used in the anti-tumour activity with respect to C38 adenocarcinoma is the same as the procedure described in the present application at Example 28.", "note": "Some results were stated once for a whole list of compounds, not compound by compound."}
{"substance": "(±)-cis-1-Hydroxy-6-methoxy-2-pentenoyloxy-3,3,14-trimethyl-2,3,7,14-tetrahydro-1H-benzo[b]pyrano[3,2-h]acridin-7-one [Example 8]", "values": [{"measurement": "inhibition of the growth of C38 colon adenocarcinoma", "value": "85–88%"}]}
